# Source: PubChem BioAssay AID1259425 (University of Nebraska Medical Center, 2018)
# Assay: 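Compare each knockdown with KSR1 silencing using changes in marker transcripts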 (primary screen)
# Cells: HCT116 human colon cancer cells
# Reagent: siRNA pool against human genes, 50 nM siRNA
# Measured: 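mRNA of six signature genes measured together by branched-DNA assay after 50 nM siRNA pool, blank removed, divided by geometric mean of two housekeeping genes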
# Scale: BNIP3L mRNA: higher = more BNIP3L transcript after knockdown; NDRG1 mRNA: higher = more NDRG1 transcript after knockdown; BNIP3 mRNA: higher = more BNIP3 transcript after knockdown; ALDOC mRNA: higher = more ALDOC transcript after knockdown; ACSL5 mRNA: higher = more ACSL5 transcript after knockdown
# In all, the deposit lists about 14,000 reagents; below is a part drawn at random. Not stated in the record: the time to read-out.
"BNIP3L mRNA, set 1","NDRG1 mRNA, set 1","BNIP3 mRNA, set 1","ALDOC mRNA, set 1","ACSL5 mRNA, set 1",Gene
0.081,0.154,0.287,0.0134,0.0676,SULT1A3 (sulfotransferase family 1A member 3)
0.219,0.325,0.467,0.021,0.378,GALNS (galactosamine (N-acetyl)-6-sulfatase)
0.164,0.238,0.305,0.0274,0.273,MRPL34 (mitochondrial ribosomal protein L34)
0.152,0.406,0.376,0.0697,0.0835,ZNF207 (zinc finger protein 207)
0.1,0.172,0.213,0.0297,0.0914,MYBPC3 (myosin binding protein C3)
0.124,0.234,0.286,0.0331,0.262,"RAB13 (RAB13, member RAS oncogene family)"
0.0801,0.199,0.256,0.0127,0.232,GGCX (gamma-glutamyl carboxylase)
0.123,0.12,0.499,0.0488,0.0461,XYLT1 (xylosyltransferase 1)
0.0909,0.107,0.461,0.0236,0.175,HOOK1 (hook microtubule tethering protein 1)
0.114,0.204,0.376,0.0312,0.2,CFHR4 (complement factor H related 4)
0.0724,0.129,0.215,0.0169,0.153,OPA3 (outer mitochondrial membrane lipid metabolism regulator OPA3)

Single entries from above.
Value for RAB13 (RAB13, member RAS oncogene family) in “ACSL5 mRNA, set 1”: 0.262
For “BNIP3 mRNA, set 1”, OPA3 (outer mitochondrial membrane lipid metabolism regulator OPA3) has 0.215
Result of ZNF207 (zinc finger protein 207) under “NDRG1 mRNA, set 1”: 0.406
SULT1A3 (sulfotransferase family 1A member 3), BNIP3L mRNA, set 1: 0.081

The results go on:
"BNIP3L mRNA, set 1","NDRG1 mRNA, set 1","BNIP3 mRNA, set 1","ALDOC mRNA, set 1","ACSL5 mRNA, set 1",Gene
0.048,0.101,0.269,0.0262,0.0865,EDA (ectodysplasin A)
0.0741,0.206,0.253,0.0679,0.255,LRAT (lecithin retinol acyltransferase)
0.0791,0.134,0.156,0.0137,0.256,PRDX4 (peroxiredoxin 4)
0.0871,0.193,0.279,0.0167,0.152,TUBGCP3 (tubulin gamma complex component 3)
0.126,0.13,0.2,0.0324,0.146,SLC22A4
0.0602,0.0788,0.296,0.0105,0.102,MYL3 (myosin light chain 3)
0.121,0.203,0.284,0.0202,0.21,RBM42 (RNA binding motif protein 42)
0.092,0.496,0.325,0.0259,0.153,RIN2 (Ras and Rab interactor 2)
0.443,0.403,1.01,0.123,0.19,FRRS1L (ferric chelate reductase 1 like)
0.145,0.113,0.485,0.0247,0.131,HSD3B2
0.112,0.0906,0.374,0.0314,0.0858,RERGL (RERG like)
0.144,0.179,0.562,0.0222,0.131,"PSMD2 (proteasome 26S subunit ubiquitin receptor, non-ATPase 2)"
0.0989,0.109,0.378,0.0143,0.174,HTN3 (histatin 3)
0.0992,0.143,0.266,0.00855,0.162,TCL6 (T cell leukemia/lymphoma 6)
0.109,0.184,0.363,0.0317,0.145,POLR1E (RNA polymerase I subunit E)
0.139,0.0846,0.427,0.0179,0.107,E2F6 (E2F transcription factor 6)
0.106,0.168,0.292,0.0304,0.293,CLEC4D (C-type lectin domain family 4 member D)
0.0986,0.145,0.329,0.0225,0.178,WWTR1 (WW domain containing transcription regulator 1)
0.189,0.129,0.213,0.0147,0.221,TSPAN6 (tetraspanin 6)
0.175,0.168,0.306,0.0575,0.123,EPN2 (epsin 2)
0.147,0.774,0.265,0.0372,0.392,GRAMD2B (GRAM domain containing 2B)
0.136,0.149,0.286,0.0463,0.172,GGPS1 (geranylgeranyl diphosphate synthase 1)
0.181,0.117,0.293,0.0262,0.125,LPAR4 (lysophosphatidic acid receptor 4)
